Assay results as given in the supplement of paper PMC6078165.
Values are relative to the signal before dosing, not to a vehicle control; the signal also falls without drug.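 Labels refer to human fibroblasts, largely primary: uterine (C12385, HUF), lung (H6013), bone (Hs27A), adrenal (HADF), skin (WS1), plus mammary HMF and breast cancer-associated Hs343T. Cancer lines are basal-like or mesenchymal-like triple-negative breast cancer. The paper counts as hits responses shifting over 3x the replicate standard deviation. The tissue of the other fibroblasts is not given here.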

Test system: MDAMB468
Assay: relative JC-1 red fluorescence (viability) vs pre-drug, coculture with fibroblast (fraction); higher = more viable cancer cells
Description: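 JC-1 labelled TNBC cells cocultured 1:1 (1,500 cells each) with CellTrace Violet stained primary or stromal fibroblasts in 384-well plates in FluoroBrite medium, treated with one of 42 anticancer drugs at 0.1, 1, 10 or 100 uM. JC-1 red fluorescence (mitochondrial integrity in cancer cells only) was read by plate reader every 8 h for 72 h. Values are normalised to each well's pre-drug value. The stock of one drug was tenfold lower, so its dose labels may be too high.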

COc1cc([C@@H]2c3cc4c(cc3[C@@H](O[C@@H]3O[C@@H]5CO[C@@H](C)O[C@H]5[C@H](O)[C@H]3O)[C@H]3COC(=O)[C@H]23)OCO4)cc(OC)c1O [Etoposide]
relative JC-1 red fluorescence
Conditions	8 h	16 h	24 h	32 h	40 h	48 h	56 h	64 h	72 h
0.1 µM, coculture fibroblast: C12385	0.86924	0.822	0.787	0.753	0.725	0.731	0.703	0.703	0.698
0.1 µM, coculture fibroblast: H6013	0.8591	0.858	0.818	0.8051	0.781	0.794	0.768	0.748	0.703
0.1 µM, coculture fibroblast: H6019	0.835	0.812	0.78836	0.7559	0.7164	0.707	0.667	0.637	0.611
0.1 µM, coculture fibroblast: H6076	0.90704	0.943	0.867	0.854	0.782	0.774	0.743	0.731	0.763
0.1 µM, coculture fibroblast: H6231	0.819	0.95	0.867	0.83	0.779	0.755	0.698	0.664	0.65
0.1 µM, coculture fibroblast: HADF	0.872	0.858	0.795	0.778	0.733	0.728	0.696	0.69	0.651
0.1 µM, coculture fibroblast: HCFa	0.853	0.836	0.784	0.754	0.6943	0.6986	0.6432	0.608	0.553
0.1 µM, coculture fibroblast: HCPF	0.865	0.9342	0.91	0.869	0.823	0.802	0.751	0.732	0.718
0.1 µM, coculture fibroblast: HHSteC	0.885	0.874	0.838	0.799	0.757	0.754	0.699	0.682	0.631
0.1 µM, coculture fibroblast: HMF	0.828	0.883	0.8885	0.843	0.782	0.746	0.698	0.686	0.665
0.1 µM, coculture fibroblast: HPFa	0.9105	0.895	0.865	0.801	0.776	0.777	0.712	0.686	0.605
0.1 µM, coculture fibroblast: HUF	0.8953	0.825	0.779	0.736	0.684	0.67	0.633	0.625	0.611
0.1 µM, coculture fibroblast: Hs5	0.919	0.9413	0.929	0.908	0.839	0.808	0.7722	0.7308	0.7524
0.1 µM, coculture fibroblast: Hs27A	0.853	0.8603	0.797	0.802	0.751	0.758	0.723	0.712	0.662
0.1 µM, coculture fibroblast: Hs343T	0.875	0.88	0.951	0.912	0.878	0.855	0.807	0.799	0.779
0.1 µM, coculture fibroblast: WS1	0.849	0.7995	0.764	0.715	0.677	0.66	0.643	0.636	0.632
1 µM, coculture fibroblast: C12385	0.878	0.845	0.839	0.806	0.776	0.773	0.744	0.742	0.747
1 µM, coculture fibroblast: H6013	0.8607	0.8569	0.8213	0.8131	0.79578	0.7975	0.7796	0.772	0.7178
1 µM, coculture fibroblast: H6019	0.836	0.811	0.768	0.705	0.669	0.651	0.601	0.574	0.549
1 µM, coculture fibroblast: H6076	0.891	0.899	0.88	0.872	0.806	0.794	0.767	0.754	0.784
1 µM, coculture fibroblast: H6231	0.839	0.876	0.816	0.811	0.745	0.732	0.69	0.671	0.662
1 µM, coculture fibroblast: HADF	0.856	0.849	0.792	0.78	0.758	0.752	0.72	0.718	0.674
1 µM, coculture fibroblast: HCFa	0.856	0.823	0.775	0.752	0.702	0.703	0.654	0.623	0.55674
1 µM, coculture fibroblast: HCPF	0.866	0.9008	0.842	0.826	0.758	0.719	0.671	0.658	0.656
1 µM, coculture fibroblast: HHSteC	0.888	0.875	0.843	0.818	0.8	0.787	0.738	0.713	0.654
1 µM, coculture fibroblast: HMF	0.85	0.915	0.858	0.843	0.773	0.752	0.717	0.701	0.699
1 µM, coculture fibroblast: HPFa	0.922	0.9059	0.8819	0.834	0.811	0.812	0.756	0.737	0.653
1 µM, coculture fibroblast: HUF	0.883	0.821	0.796	0.745	0.711	0.696	0.661	0.654	0.642
1 µM, coculture fibroblast: Hs5	0.979	0.902	0.866	0.832	0.756	0.719	0.69	0.656	0.677
1 µM, coculture fibroblast: Hs27A	0.8306	0.8527	0.791	0.784	0.737	0.735	0.701	0.692	0.649
1 µM, coculture fibroblast: Hs343T	0.852	0.9105	0.854	0.821	0.747	0.721	0.668	0.65	0.627
1 µM, coculture fibroblast: WS1	0.8472	0.77648	0.74	0.68	0.644	0.62	0.587	0.573	0.563
10 µM, coculture fibroblast: C12385	0.8498	0.815	0.776	0.742	0.696	0.695	0.648	0.626	0.622
10 µM, coculture fibroblast: H6013	0.8658	0.8519	0.78922	0.759	0.727	0.72432	0.68	0.656	0.591
10 µM, coculture fibroblast: H6019	0.837	0.809	0.7688	0.7135	0.661	0.649	0.6	0.568	0.549
10 µM, coculture fibroblast: H6076	0.9327	0.872	0.91	0.8821	0.7981	0.763	0.695	0.657	0.678
10 µM, coculture fibroblast: H6231	0.835	0.9608	0.876	0.837	0.771	0.742	0.686	0.651	0.633
10 µM, coculture fibroblast: HADF	0.888	0.842	0.78	0.751	0.689	0.684	0.642	0.631	0.57
10 µM, coculture fibroblast: HCFa	0.88	0.88	0.854	0.824	0.781	0.793	0.74	0.713	0.669
10 µM, coculture fibroblast: HCPF	0.851	0.927	0.864	0.838	0.77	0.731	0.67	0.659	0.651
10 µM, coculture fibroblast: HHSteC	0.893	0.874	0.826	0.785	0.754	0.755	0.7	0.678	0.617
10 µM, coculture fibroblast: HMF	0.833	0.9708	0.866	0.826	0.754	0.716	0.643	0.617	0.5951
10 µM, coculture fibroblast: HPFa	0.937	0.916	0.876	0.818	0.788	0.788	0.73	0.716	0.634
10 µM, coculture fibroblast: HUF	0.891	0.839	0.789	0.722	0.678	0.669	0.631	0.615	0.59
10 µM, coculture fibroblast: Hs5	0.9903	0.98	0.914	0.888	0.803	0.769	0.734	0.703	0.732
10 µM, coculture fibroblast: Hs27A	0.8742	0.8628	0.7897	0.781	0.726	0.7238	0.693	0.679	0.62
10 µM, coculture fibroblast: Hs343T	0.881	0.963	0.8737	0.835	0.7452	0.7003	0.6361	0.6232	0.599
10 µM, coculture fibroblast: WS1	0.8605	0.783	0.7292	0.6679	0.613	0.584	0.548	0.516	0.502
100 µM, coculture fibroblast: C12385	0.878	0.864	0.832	0.78	0.73	0.711	0.667	0.649	0.631
100 µM, coculture fibroblast: H6013	0.86	0.874	0.83	0.811	0.805	0.806	0.773	0.75	0.685
100 µM, coculture fibroblast: H6019	0.814	0.772	0.727	0.676	0.657	0.658	0.64	0.635	0.638
100 µM, coculture fibroblast: H6076	0.901	0.901	0.852	0.843	0.7429	0.704	0.641	0.621	0.661
100 µM, coculture fibroblast: H6231	0.83	0.878	0.795	0.772	0.698	0.687	0.643	0.624	0.625
100 µM, coculture fibroblast: HADF	0.8527	0.83	0.768	0.752	0.705	0.699	0.656	0.66	0.591
100 µM, coculture fibroblast: HCFa	0.8482	0.8033	0.7444	0.71074	0.674	0.6876	0.6434	0.621	0.562
100 µM, coculture fibroblast: HCPF	0.8521	0.906	0.8485	0.844	0.766	0.736	0.697	0.672	0.658
100 µM, coculture fibroblast: HHSteC	0.884	0.879	0.836	0.796	0.774	0.778	0.719	0.703	0.641
100 µM, coculture fibroblast: HMF	0.869	0.943	0.868	0.841	0.748	0.7126	0.661	0.642	0.636
100 µM, coculture fibroblast: HPFa	0.9196	0.922	0.8938	0.8485	0.811	0.82	0.763	0.736	0.666
100 µM, coculture fibroblast: HUF	0.903	0.849	0.785	0.72	0.668	0.651	0.601	0.587	0.574
100 µM, coculture fibroblast: Hs5	0.944	0.947	0.897	0.859	0.793	0.76	0.727	0.71	0.745
100 µM, coculture fibroblast: Hs27A	0.848	0.858	0.7928	0.814	0.758	0.77	0.745	0.733	0.672
100 µM, coculture fibroblast: Hs343T	0.8884	0.969	0.885	0.84	0.719	0.672	0.591	0.559	0.539
100 µM, coculture fibroblast: WS1	0.827	0.772	0.727	0.661	0.614	0.58	0.551	0.531	0.519
